The list shows a part of the results.

The chains behind the UniProt entries cited, without tags or fusion partners.
UniProt Q0JBA9, entry or part of it: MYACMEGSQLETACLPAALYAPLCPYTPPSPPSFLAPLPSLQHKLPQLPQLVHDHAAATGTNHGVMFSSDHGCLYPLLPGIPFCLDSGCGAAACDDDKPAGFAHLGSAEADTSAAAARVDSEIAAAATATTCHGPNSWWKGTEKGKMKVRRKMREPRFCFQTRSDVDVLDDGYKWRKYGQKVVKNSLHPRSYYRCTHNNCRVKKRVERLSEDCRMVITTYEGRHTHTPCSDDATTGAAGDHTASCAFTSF

For the assay, the target named is OsWRKY34 (Oryza sativa, UniProt Q0JBA9 1-250). As to the kind of experiment: protein-binding microarray (RPBM); PBS, 2% BSA, 51.3 ng/ul salmon testes DNA, 50 uM zinc acetate, 200 nM TF, 25 C, 1 h; high values mean tight binding. Conditions: protein: recombinant; tags: N-terminal polyhistidine and DsRed monomer fusion (pET32a); label: CyDye5-dUTP incorporated in the synthesized complementary strand; 3' TTTTT single-stranded linker to array surface; dsDNA, one strand shown. An outline of the steps: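 Binding signal here means per-feature fluorescence intensity in arbitrary units. The values were read on an Axon 4000B scanner after a custom Agilent array, double-stranded by primer extension with Cy5-dUTP, was incubated with 200 nM protein at 25 °C for 1 h in PBS with 2% BSA, salmon testes DNA and 50 µM zinc acetate, then washed. The proteins were transcription factors with an N-terminal polyhistidine tag and DsRed, expressed in E. coli BL21-CodonPlus and purified on Ni–NTA.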
For “AATAGTTCATGCGTTTATATCTGCGTGTCTTTTTCAGCTCCGGAGTCACCTAGTGCAG”, the binding signal is 9190 fluorescence intensity (a.u.).
Consider “TGTTTCTCGGCTTCCGCTACACGCCTCGCCGACCACCATGCGGAGTCACCTAGTGCAG”, for which the binding signal is 13100 fluorescence intensity (a.u.).
To “ATGGAATCGATCACCTGCAATGCAACACCGTGCCATAATCCGGAGTCACCTAGTGCAG” belongs 8520 fluorescence intensity (a.u.); to “CGTCGCTTGGGGTGGTGTTGGTGGTTCTGAATTTTGATTGCGGAGTCACCTAGTGCAG”, 19200 fluorescence intensity (a.u.).
To “TTTCAATTAATTTTCTGCAGTCGTACATACTTGCGTTTCTCGGAGTCACCTAGTGCAG” belongs 11400 fluorescence intensity (a.u.).
To “ACTGCAGTTATTACCAATTCTCTGCGCTGTGGTTGATCCACGGAGTCACCTAGTGCAG” belongs 8090 fluorescence intensity (a.u.); to “TGGCTTTGGTTTTGGTTTGGTAAATTGGTTGCGTGTGCGTCGGAGTCACCTAGTGCAG”, 8570 fluorescence intensity (a.u.); to “AAAGACACACCTTTCAACTTTCACCTTTTTACCACTTCAACGGAGTCACCTAGTGCAG”, 8060 fluorescence intensity (a.u.).
Turning to “CGCCTCCGCTTGCCGCTGCAGCTGCACTCGCCGACACCCGCGGAGTCACCTAGTGCAG”, the binding signal is 8070 fluorescence intensity (a.u.).
The same measure for “CAATAATTCTGCCCCTTGTCCGCACGCACGCGCCCAGCTCCGGAGTCACCTAGTGCAG”: 8640 fluorescence intensity (a.u.).
For the sequence “CTTCATACTTGCTTCACCTGGCTCAGGGCCTCTGGCGCTCCGGAGTCACCTAGTGCAG”, the binding signal was 8720 fluorescence intensity (a.u.).
“GCGGTTGGGTTTGTGTGGTTTTTTTTGAAGGCGGAGTTGTCGGAGTCACCTAGTGCAG”: the binding signal was 12100 fluorescence intensity (a.u.).
The same measure for “GCTTCACTCATAGATGGTCACAATTTTCTCCAGAAGTTAACGGAGTCACCTAGTGCAG”: 8940 fluorescence intensity (a.u.).
In the case of “GGTTAATCTCGTTTTACGTATCTTCTCAATCACCTCTTCACGGAGTCACCTAGTGCAG”, the binding signal is 10500 fluorescence intensity (a.u.).
To “ACTAGCCTGGAGCTTCTTCTTATGCTTCATCTGTTCTTCTCGGAGTCACCTAGTGCAG” belongs 10800 fluorescence intensity (a.u.); to “CCATTGCCGACTCTCTTCCTCGCTTCCGGCCGACGGCCGCCGGAGTCACCTAGTGCAG”, 9550 fluorescence intensity (a.u.); to “CTTACTTTACCATTGCGGGTGCTCTTAGAGTGTGTTCTTTCGGAGTCACCTAGTGCAG”, 10500 fluorescence intensity (a.u.).
The same measure for “AAACACTTTCCAATGCAACACAGCTAAGCTAGTAGTACTACGGAGTCACCTAGTGCAG”: 8430 fluorescence intensity (a.u.).
The same measure for “CAACCCATCCCACTCGCCCCTCAACCAAACACCTCTAAAACGGAGTCACCTAGTGCAG”: 9720 fluorescence intensity (a.u.).
Turning to “GCAACTAGATCACATAATGAGTTTTCAGTTATATTTTAACCGGAGTCACCTAGTGCAG”, the binding signal is 8200 fluorescence intensity (a.u.).
To “ATTGTCCTTCGCGAACAGTGTTCACATCCATTTCATGTATCGGAGTCACCTAGTGCAG” belongs 13200 fluorescence intensity (a.u.); to “CACACAAAGAACTAGCTCTCTCACCGTCACTGATACACCGCGGAGTCACCTAGTGCAG”, 9390 fluorescence intensity (a.u.); to “TTCCTACATATGTGTGTACTGCGATTTTTTTTCTTCCTCACGGAGTCACCTAGTGCAG”, 12100 fluorescence intensity (a.u.).
Take “CTCTCTCTATGCCATAATATAGGCACGGTCAAACTTAGCACGGAGTCACCTAGTGCAG”: the binding signal was 8730 fluorescence intensity (a.u.).
The same measure for “GACGTTCGTTCCTTGAGTTCAATCTCCGATTGGCGCGCGCCGGAGTCACCTAGTGCAG”: 11200 fluorescence intensity (a.u.).
In the case of “CCCGCCGCGCGCGCGCGTCTCTCGTGCTCGGCTCCGCCGCCGGAGTCACCTAGTGCAG”, the binding signal is 8180 fluorescence intensity (a.u.).
The same measure for “AACCCCAAATTATCGTGTGATTATTTCCTGTTTGCAATTTCGGAGTCACCTAGTGCAG”: 8750 fluorescence intensity (a.u.); for “TTCACCCACGCCACGCCGCCACCGCCTCGCTTTTCCTTCTCGGAGTCACCTAGTGCAG”: 10800 fluorescence intensity (a.u.).
Consider “GCTCTCTAGGGCTCCGCGTCCCCTGTCTCAGCAAATTTCACGGAGTCACCTAGTGCAG”, for which the binding signal is 10600 fluorescence intensity (a.u.).
“CTTTTGCAACTCAAGCTACTATATCTATGATGGCATCTGACGGAGTCACCTAGTGCAG”: the binding signal is 8400 fluorescence intensity (a.u.).
On to “TTTTTTTTATCTGTGCGATTTCTATTCGTCTCCCTTTTCTCGGAGTCACCTAGTGCAG”, for which the binding signal is 10000 fluorescence intensity (a.u.).
The same measure for “CTTCTAAACATAGCTTCCACAATCGTCTCCGGGCCCTTCTCGGAGTCACCTAGTGCAG”: 8320 fluorescence intensity (a.u.); for “CGTATGATTGTTTGCTACCTTATGATGTCAGATTCCTGATCGGAGTCACCTAGTGCAG”: 8580 fluorescence intensity (a.u.); for “TGCCTTTGTCAATTTTTCCATTTGATTCATGTTACTTCATCGGAGTCACCTAGTGCAG”: 14700 fluorescence intensity (a.u.).
For “TCCACCATTGACCAATGCCACGTCCTGCCAAATCCTCCTCCGGAGTCACCTAGTGCAG”, the binding signal was 10700 fluorescence intensity (a.u.).
The same measure for “GTTATCACGATAGTCGTGCGGTTACTGAGGTATACCGTGACGGAGTCACCTAGTGCAG”: 9310 fluorescence intensity (a.u.).
To “TGGTCTTCTATGTCACAATTCTAGTTTTGAGGGTAGTTTACGGAGTCACCTAGTGCAG” belongs 9670 fluorescence intensity (a.u.).
To “TACTTACACTATCATCATCCAGGCCCATATCCAAAGTGGACGGAGTCACCTAGTGCAG” belongs 8070 fluorescence intensity (a.u.).
For “CACAACCGCTTCCGCTTTCCGCTGCCTCCGCTATACTACACGGAGTCACCTAGTGCAG”, the binding signal is 11700 fluorescence intensity (a.u.).
To “GTGTGCCAAGGTATCCAGAATTCGATCAAATCAATCAATGCGGAGTCACCTAGTGCAG” belongs 8730 fluorescence intensity (a.u.); to “AATTTTTTTTTGCTTACAAAGGGTGAAACTTTCTCTCTCTCGGAGTCACCTAGTGCAG”, 8500 fluorescence intensity (a.u.).
To “GTCAATCCCAAATTCACCTCTCGCCGTCACGCGAATTCCGCGGAGTCACCTAGTGCAG” belongs 8480 fluorescence intensity (a.u.).

Values taken from paper PMC7819943, “Rice protein-binding microarrays: a tool to detect cis-acting elements near promoter regions in rice”.
